Laboratory results: publication PMC5853475
These are yes or no findings as the source states them, for the method shown. For some assays here: In cells and extracts the contact can be indirect. Some results given as binding are weak or reduced against the parent protein; the word gives no strength. Sequences can lack the tags named with a protein.

T1: RGL1 with a deletion of 159 amino acids in its N-terminal (BD-RGL1) (Arabidopsis thaliana) (UniProt Q9C8Y3)
T1 sequence: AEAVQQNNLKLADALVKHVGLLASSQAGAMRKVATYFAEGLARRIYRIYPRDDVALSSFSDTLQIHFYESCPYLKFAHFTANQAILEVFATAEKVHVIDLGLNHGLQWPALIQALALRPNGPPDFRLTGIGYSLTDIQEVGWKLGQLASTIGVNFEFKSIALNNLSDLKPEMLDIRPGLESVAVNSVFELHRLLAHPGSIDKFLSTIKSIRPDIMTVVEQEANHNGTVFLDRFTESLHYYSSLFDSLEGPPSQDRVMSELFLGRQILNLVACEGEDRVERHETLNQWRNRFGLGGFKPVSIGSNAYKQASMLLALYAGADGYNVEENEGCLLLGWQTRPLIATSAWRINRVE

T2: RGL1-cYFP (Arabidopsis thaliana) (UniProt Q9C8Y3)
T2 sequence: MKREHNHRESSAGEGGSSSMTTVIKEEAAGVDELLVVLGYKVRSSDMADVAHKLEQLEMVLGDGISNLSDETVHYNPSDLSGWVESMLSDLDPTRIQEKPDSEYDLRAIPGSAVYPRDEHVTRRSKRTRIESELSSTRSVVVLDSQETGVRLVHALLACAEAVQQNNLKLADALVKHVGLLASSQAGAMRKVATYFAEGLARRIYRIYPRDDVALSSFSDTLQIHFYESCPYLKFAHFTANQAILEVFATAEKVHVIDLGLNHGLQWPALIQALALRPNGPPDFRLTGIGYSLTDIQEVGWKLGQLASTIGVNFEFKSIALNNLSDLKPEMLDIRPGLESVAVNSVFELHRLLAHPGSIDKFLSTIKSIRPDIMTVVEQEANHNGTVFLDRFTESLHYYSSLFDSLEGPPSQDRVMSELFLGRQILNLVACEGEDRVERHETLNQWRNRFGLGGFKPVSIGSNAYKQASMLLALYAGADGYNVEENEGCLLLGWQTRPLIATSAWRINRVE

T3: Flag-RGL1 (Arabidopsis thaliana) (UniProt Q9C8Y3)
T3 sequence: T2 sequence

B1: AD-bHLH48 (full-length bHLH48 in pGADT7) (protein, UniProt Q8VZ02 1-327)
chain: MDLTQGFRARSGVVGPVAGLESLNFSDEFRHLVTTMPPETTGGSFTALLEMPVTQAMELLHFPDSSSSQARTVTSGDISPTTLHPFGALTFPSNSLLLDRAARFSVIATEQNGNFSGETANSLPSNPGANLDRVKAEPAETDSMVENQNQSYSSGKRKEREKKVKSSTKKNKSSVESDKLPYVHVRARRGQATDNHSLAERARREKINARMKLLQELVPGCDKIQGTALVLDEIINHVQTLQRQVEMLSMRLAAVNPRIDFNLDSILASENGSLMDGSFNAESYHQLQQWPFDGYHQPEWGREEDHHQANFSMGSATLHPNQVKMEL
B2: AD-bHLH60 (full-length bHLH60 in pGADT7) (protein, UniProt Q3EAI1 1-426)
chain: MDLTGGFGARSGGVGPCREPIGLESLHLGDEFRQLVTTLPPENPGGSFTALLELPPTQAVELLHFTDSSSSQQAAVTGIGGEIPPPLHSFGGTLAFPSNSVLMERAARFSVIATEQQNGNISGETPTSSVPSNSSANLDRVKTEPAETDSSQRLISDSAIENQIPCPNQNNRNGKRKDFEKKGKSSTKKNKSSEENEKLPYVHVRARRGQATDSHSLAERARREKINARMKLLQELVPGCDKGTDFGGKIKIKVCFGVHLLMISGKKVAIFLWKVSCEDLIDCSFSPPRIQGTALVLDEIINHVQSLQRQVEMLSMRLAAVNPRIDFNLDTILASENGSLMDGSFNAAPMQLAWPQQAIETEQSFHHRQLQQPPTQQWPFDGLNQPVWGREEDQAHGNDNSNLMAVSENVMVASANLHPNQVKMEL
B3: bHLH48-nYFP (protein, UniProt Q8VZ02 1-327)
chain: B1 chain
B4: bHLH60-nYFP (protein, UniProt Q3EAI1 1-426)
chain: B2 chain
B5: Myc-bHLH48 (protein, UniProt Q8VZ02 1-327)
chain: B1 chain

Assays:
[1] = target: T1, RGL1 with a deletion of 159 amino acids in its N-terminal (BD-RGL1) (Arabidopsis thaliana); assay: two-hybrid; pairwise test; truncated RGL1 in pGBKT7 (BD), full-length bHLH48 or bHLH60 in pGADT7 (AD); growth on synthetic dropout medium lacking Leu/Trp/His/Ade
[2] = target: T2, RGL1-cYFP (Arabidopsis thaliana); assay: split reporter; BiFC; nYFP and cYFP fusions co-expressed by Agrobacterium infiltration in N. benthamiana leaf epidermal cells; 24 °C, observed after 48 h
[3] = target: T3, Flag-RGL1 (Arabidopsis thaliana); assay: co-IP; Myc-bHLH48 and Flag-RGL1 transiently co-expressed in tobacco leaves, treated with MG132 and paclobutrazol; Flag antibody for precipitation, Myc antibody for detection

Row | binding [1] | binding [2] | other results | Binder
1 | binds |  |  | B1
2 | binds |  |  | B2
3 |  | binds |  | B3
4 |  | binds |  | B4
5 |  |  | binding [3]: binds | B5
